Data source: PubChem BioAssay AID652272 (Drosophila RNAi Screening Center, 2013)
The screen tested about 21,000 reagents; shown is an unselected part of those that have a named target and a result. Of all reagents, 503 (2.4%) got an active call. 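Raw plate light values, not normalised; calls rest on replicate z-scores that were not deposited; hits include reporter decreases as well as increases.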 A number with no mark means an inactive call. The numbers tell different reagents against one gene apart. A plus sign joins genes that one reagent is predicted to hit. The record does not give: the amount of reagent, the time to read-out.

Test: 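Genes whose knock-down decreases or increases Hedgehog reporter output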 (primary screen)
Cell system: Drosophila clone 8 (Cl8) cells
Knock-down reagent: long dsRNA against Drosophila genes
Read-out: 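Plate reader light from a firefly reporter under a ptc promoter fragment that responds to Hedgehog, with Renilla light as transfection reference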
Reading the numbers: firefly Hh reporter signal: higher = more ptc reporter light; Renilla reference signal: higher = more Renilla control light
Hit rule: 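Called a hit if the two-replicate mean z-score lies below -2 or above +3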
Meaning of the calls: active = hit: reporter lowered or raised; inactive = not a hit

The opening 3 records as a preview:
Gene	reagent no.	firefly Hh reporter signal, replicate 1	firefly Hh reporter signal, replicate 2	firefly Hh reporter signal, replicate 3	Renilla reference signal, replicate 1	Renilla reference signal, replicate 2
Alp10 (Alkaline phosphatase 10)	1	53165	49152		5245	3350
CG4229	1	80536	57862		3109	1991
ND1 (retired record)	1	1.80e5	2.83e5		5952	12706

The listing, from the first entry:
Gene	reagent no.	firefly Hh reporter signal, replicate 1	firefly Hh reporter signal, replicate 2	firefly Hh reporter signal, replicate 3	Renilla reference signal, replicate 1	Renilla reference signal, replicate 2
Alp10 (Alkaline phosphatase 10)	1	53165	49152		5245	3350
CG4229	1	80536	57862		3109	1991
ND1 (retired record)	1	1.80e5	2.83e5		5952	12706
CG15642	1	67152	1.93e5		1403	7104
SA1 (Stromalin 1)	1	88710	54464		4041	2172
CG15200	1	78714	1.63e5		2208	6188
NT5E-2 (Ecto-5'-nucleotidase 2)	1	85632	75523		3609	2708
CG8036	1	61466	86397		2156	2128
PolI (DNA polymerase iota)	1	1.01e5	1.44e5		3833	3805
CG14569	1	1.67e5	1.52e5		5888	4872
eIF3l (eukaryotic translation initiation factor 3 subunit l)	1	41940	49696	77154	3658	4344
CG32081	1	51043	43680	55397	3846	4821
rt (rotated abdomen)	1	47844	55416	45970	5543	2733
sn (singed)	1	83888	1.97e5		3078	6946
CHES-1-like (Checkpoint suppressor 1-like)	1	67296	1.63e5		1863	6676
CG17375	1	1.27e5	81721		3252	6598
Akt (Akt kinase)	1	87636	51004		3942	2340
TfIIB (Transcription factor IIB)	1	84656	52544		2346	4116
CG42376 + cin	1	76886	65543		1853	2096
Mlc2 (Myosin light chain 2)	1	69024 (active)	59379		2561	3251
Stip1 (Stress induced phosphoprotein 1)	1	1.12e5	78037		3251	2562
CG7239	1	63553	37296		2937	2040
T3dh + pgc	1	55858	41136		2371	1810
mdu (meduse)	1	1.23e5	1.32e5		2800	3898
CG11951	1	85691	90768		2409	2685
Aplip1 (APPL-interacting protein 1)	1	1.53e5	3.68e5		4128	14496
Aplip1 (APPL-interacting protein 1)	2	96647	48213		3312	3686
CG14411	1	71481	1.78e5		1976	6603
HP1c (Heterochromatin Protein 1c)	1	1.23e5	6.65e5	1.05e5	5520	39698
CG34148 + P5CDh2	1	68096	3.17e5		14364	7613
CG17930	1	83370	61863		3603	2777
CG33169	1	1.34e5	1.45e5		4619	4260
Dscam4 (Down syndrome cell adhesion molecule 4)	1	95416	1.91e5		3018	8569
Dscam4 (Down syndrome cell adhesion molecule 4)	2	1.16e5	2.24e5		3456	9618
Dscam4 (Down syndrome cell adhesion molecule 4)	3	30246	48155		4589	3024
Dscam4 (Down syndrome cell adhesion molecule 4)	4	15363	34262		3715	2987
Dscam4 (Down syndrome cell adhesion molecule 4)	5	80572	70944		7869	5240
CG10257	1	76012	45288		1418	3401
Lk (Leucokinin)	1	1.91e5			5260	5194
Osi1 (Osiris 1)	1	86036	1.40e5		3360	3808
CG8661	1	91872	2.16e5		2473	9433
CG16719	1	1.07e5	67334		4471	3076
Cow	1	5.72e5	1.12e5		5000	5000
Cow	2	3.97e5	97366		23394	2902
vn (vein)	1	40581	37957		3184	2848
CG6978	1	85176	1.66e5		1621	7286
CG15576	1	65489	1.44e5		2477	5776
Tengl1 (Testis EndoG-Like 1)	1	90729	60817		2436	1576
TTLL3A (Tubulin tyrosine ligase-like 3A)	1	89075	53648		2413	5051
CG14118	1	29693	42386	43831	4640	3547
Gyc89Db (Guanylyl cyclase at 89Db)	1	1.13e5	1.25e5		3752	4268
Cln3	1	84125			3803	2775
maca	1	58650	85911		1024	2664
Rpt1 (Regulatory particle triple-A ATPase 1)	1	42682	31648		2789	2109
Prosalpha2 (Proteasome alpha2 subunit)	1	48468	58320		2346	9718
CG7069	1	1.16e5	93333		5027	4085
AIMP3 (aaRS-interacting multifunctional protein 3)	1	70025	41792		1770	3941
